Data taken from article PMC10374575.
No constants are given. Whether binding was seen depends on the method and setting. Binding seen in cells or lysates may run through a third protein. Some binding calls cover weakened binding; strength is not graded here. Blank lines part the entries; values can stand above or below the substance they belong to.

By UniProt entry, the sequences of proteins in these tests, tags left out. Where a name states a change or a piece, a line headed by the entry shows the natural chain unless it says otherwise.
UniProt P61169: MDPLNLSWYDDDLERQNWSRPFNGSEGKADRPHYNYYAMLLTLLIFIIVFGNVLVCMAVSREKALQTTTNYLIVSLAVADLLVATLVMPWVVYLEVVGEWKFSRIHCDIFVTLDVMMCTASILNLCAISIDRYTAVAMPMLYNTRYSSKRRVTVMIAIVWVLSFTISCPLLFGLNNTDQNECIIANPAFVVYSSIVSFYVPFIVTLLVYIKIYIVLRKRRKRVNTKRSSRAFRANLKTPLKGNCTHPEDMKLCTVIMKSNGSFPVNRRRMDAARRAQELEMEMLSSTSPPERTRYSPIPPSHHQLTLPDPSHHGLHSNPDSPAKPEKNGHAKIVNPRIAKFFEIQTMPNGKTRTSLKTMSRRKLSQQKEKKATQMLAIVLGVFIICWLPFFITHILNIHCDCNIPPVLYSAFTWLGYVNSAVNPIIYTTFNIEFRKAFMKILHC
UniProt P61168: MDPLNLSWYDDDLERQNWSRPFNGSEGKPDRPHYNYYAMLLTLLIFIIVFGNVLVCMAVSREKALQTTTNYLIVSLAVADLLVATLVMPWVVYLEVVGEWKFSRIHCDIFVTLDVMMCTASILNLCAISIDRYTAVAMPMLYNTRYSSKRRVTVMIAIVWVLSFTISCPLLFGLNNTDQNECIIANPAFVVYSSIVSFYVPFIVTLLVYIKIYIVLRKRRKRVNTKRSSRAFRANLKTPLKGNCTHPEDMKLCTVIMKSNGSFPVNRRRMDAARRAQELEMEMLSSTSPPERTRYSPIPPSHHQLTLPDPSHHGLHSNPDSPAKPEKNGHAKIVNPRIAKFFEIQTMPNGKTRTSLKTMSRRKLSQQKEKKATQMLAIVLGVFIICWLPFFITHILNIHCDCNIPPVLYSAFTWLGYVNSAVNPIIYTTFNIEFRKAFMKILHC
UniProt O08725: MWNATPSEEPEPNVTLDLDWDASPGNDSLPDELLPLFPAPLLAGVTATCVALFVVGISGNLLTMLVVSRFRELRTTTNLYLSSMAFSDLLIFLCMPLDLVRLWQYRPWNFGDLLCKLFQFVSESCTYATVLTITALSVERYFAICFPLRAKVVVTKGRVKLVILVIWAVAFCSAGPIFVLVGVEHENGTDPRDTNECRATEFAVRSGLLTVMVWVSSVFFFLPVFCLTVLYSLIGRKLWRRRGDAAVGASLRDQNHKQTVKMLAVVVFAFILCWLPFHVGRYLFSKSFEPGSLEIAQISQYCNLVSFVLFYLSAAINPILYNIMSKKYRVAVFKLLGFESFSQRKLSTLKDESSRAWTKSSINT
UniProt Q99P50: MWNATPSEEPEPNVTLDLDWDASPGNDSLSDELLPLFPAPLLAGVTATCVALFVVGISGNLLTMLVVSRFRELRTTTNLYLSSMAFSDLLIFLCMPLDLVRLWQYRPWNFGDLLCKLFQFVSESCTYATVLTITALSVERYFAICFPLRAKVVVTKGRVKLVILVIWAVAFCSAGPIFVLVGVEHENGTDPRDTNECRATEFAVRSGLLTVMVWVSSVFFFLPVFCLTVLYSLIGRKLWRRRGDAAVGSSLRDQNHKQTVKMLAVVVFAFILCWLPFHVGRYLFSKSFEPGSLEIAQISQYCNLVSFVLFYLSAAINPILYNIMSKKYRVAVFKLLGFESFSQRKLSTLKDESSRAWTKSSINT

Legend:
D2R-EYFP = D2R-EYFP (UniProt P61169); assay: FRET or BRET; FRET; D2R-EYFP and GHS-R1a-ECFP cotransfected into PC-12 cells; Nikon A1R confocal microscope, FRET ratio imaging
[1] = target: Dopamine type 2 receptor (D2R), endogenous in PC-12 cells (rat (endogenous in PC-12)) (UniProt P61169); assay: proximity ligation; PC-12 cells fixed with 4% paraformaldehyde; mouse anti-GHS-R1a and rabbit anti-D2R, Duolink II PLA probes; untreated cells and cells treated with 2 mM MPP+ for 24 h (fewer PLA signals)
[2] = target: Dopamine type 2 receptor (D2R), endogenous in mouse substantia nigra (mouse (endogenous in brain slices)) (UniProt P61168); assay: proximity ligation; mouse brain slices (substantia nigra); mouse anti-GHS-R1a and rabbit anti-D2R, Duolink II PLA probes; wild-type mice and MPTP-treated mice (fewer PLA signals)

- binding (D2R-EYFP): binds
Substance: GHS-R1a-ECFP (from UniProt O08725 1-364) (receptor)

- binding [1]: binds
Substance: Growth hormone secretagogue receptor 1a (GHS-R1a), endogenous in PC-12 cells (from UniProt O08725 1-364)

- binding [2]: binds
Substance: Growth hormone secretagogue receptor 1a (GHS-R1a), endogenous in mouse substantia nigra (from UniProt Q99P50 1-364)
